Values from PubChem BioAssay AID1259405 (NCATS, 2018)
Screen: 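Mouse-designed siRNAs used to find CHO productivity engineering targets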 (primary screen). Cell system: Chinese hamster CHO-K1 ovary cells with stable secreted eGFP expression. Knock-down reagent: single siRNA against mouse genes, 0.8 pmol siRNA per well (2 µl of 400 nM stock). Duration: 3 days. Detection: 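Per-well intracellular GFP measured by laser scanning cytometry, plus viability from ATP luminescence, each relative to plate median of non-targeting control wells, in %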. Scale: GFP, % of control: higher = more GFP per well, higher productivity. Hit rule: 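a knock-down is called active if GFP reaches 120% or more of non-targeting control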.
The deposit covers about 50,000 reagents; below is a random part of them. About 4,000 of them (8%) count as active. 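Mouse siRNA library applied to hamster cells; one well for each siRNA.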 The numbers tell different reagents against one gene apart. Further read-outs or replicates are left out here.

GFP, % of control, by gene and reagent
Zfp710: #1 69.3 inactive; #2 128 active
Aebp2: #1 92.9 inactive; #2 85.6 inactive
Nr4a2: #1 71.2 inactive; #2 35.6 inactive; #3 51.8 inactive
Mrgprb8: #1 78 inactive; #2 68.2 inactive; #3 58.3 inactive
Iqcf3: #1 98.1 inactive; #2 89 inactive; #3 108 inactive
Ubash3a: #1 54.5 inactive; #2 78.4 inactive; #3 53.6 inactive
Pacrg: #1 23.3 inactive; #2 58 inactive; #3 81.9 inactive
Sdccag8: #1 91.1 inactive; #2 60.5 inactive; #3 96.1 inactive
Nsl1: #1 51.7 inactive; #2 44.7 inactive; #3 72.8 inactive
Or10d4b: #1 63.5 inactive; #2 55.7 inactive; #3 53.8 inactive
Chmp3: #1 40.3 inactive; #2 116 inactive; #3 52.5 inactive
Rbpms2: #1 83.8 inactive; #2 81.6 inactive; #3 63.8 inactive
